Data on 1 substance can be found in paper PMC7297531.

Amino acid sequences for entries named in this document (tags omitted).
UniProt Q07820: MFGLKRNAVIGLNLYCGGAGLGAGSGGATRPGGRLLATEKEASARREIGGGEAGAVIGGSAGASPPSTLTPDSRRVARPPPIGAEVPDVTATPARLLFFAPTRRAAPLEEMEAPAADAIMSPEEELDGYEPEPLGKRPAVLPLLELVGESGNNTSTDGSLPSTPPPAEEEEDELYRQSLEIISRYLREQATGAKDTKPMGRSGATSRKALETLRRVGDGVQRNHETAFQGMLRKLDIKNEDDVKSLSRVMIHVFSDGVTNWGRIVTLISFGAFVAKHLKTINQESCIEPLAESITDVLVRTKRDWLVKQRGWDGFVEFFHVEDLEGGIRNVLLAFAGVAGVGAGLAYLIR

In this assay the target is T1, MARCH5 (human (endogenous in LNCaP)) (UniProt Q9NX47).
T1 sequence: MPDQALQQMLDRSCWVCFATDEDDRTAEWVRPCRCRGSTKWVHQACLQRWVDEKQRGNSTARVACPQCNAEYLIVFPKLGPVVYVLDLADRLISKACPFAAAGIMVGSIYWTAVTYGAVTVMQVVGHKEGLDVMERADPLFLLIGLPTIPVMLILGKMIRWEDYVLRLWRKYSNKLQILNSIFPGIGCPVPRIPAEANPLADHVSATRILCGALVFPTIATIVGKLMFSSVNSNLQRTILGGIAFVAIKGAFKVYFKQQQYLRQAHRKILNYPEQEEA
Briefly: co-IP; LNCaP cells pretreated with MG115 and MG132 (10 uM each) for 1 hr, then erlotinib (10 uM) or DMSO for 3 hr; lysates precipitated with anti-MARCH5 rabbit antibody and protein A agarose, blotted with anti-MCL1 mouse antibody.

Results are given in words; binding and its absence hold for the method and conditions named. In cells and extracts the contact can be indirect. Some results given as binding are weak or reduced against the parent protein; the word gives no strength.

Take MCL1 (from UniProt Q07820 1-350): the binding entry is “binds”.
